In patent publication US20240139333A1, “2,6-DICHLOROPHENYL ESTER COMPOUNDS AND USE THEREOF” (Fusion Pharmaceuticals Inc., priority 2021, published 2024):

Legend:
[1] = Nucleophilic reactivity study with L-Lysine; settings: L-Lysine 5 equiv
Method: General Experimental Protocol for Nucleophilic Reactivity Study with L-Lysine
(§1) To a 4 mL scintillation vial containing Compound A-E (in respective experiments; 1 eq.) was added a stir bar followed by 70 μL of HPLC grade acetonitrile. In another 4 mL scintillation vial containing L-Lysine monohydrochloride (5 eq.) was added 130 μL HPLC grade water followed by diisopropylethylamine (5 eq.). The solutions were combined and allowed to stir at room temperature (22±2° C.). Timed aliquots at time (T)=15, 30, 60 and 120 minutes were taken and analyzed by HPLC-MS using elution method 1 (Table 2).

[2] = Active ester reactivity study with amino acids (Z-Ser-OH); settings: Z-Ser-OH 1 eq., 22±2° C.
Method: (§2) General Experimental Protocol for Nucleophilic Reactivity Study with Amino Acids
as §1, with “A or C (1” for “A-E (in respective experiments; 1”, “a respective amino acid (1-5” for “L-Lysine monohydrochloride (5”, “C.) for 4 hours.” for “C.).”, “60, 120” for “60”, “240” for “120”, “6).” for “2).”

[3] = Active ester reactivity study with amino acids (N-Acetyl-L-Cysteine); settings: N-Acetyl-L-Cysteine 5 eq., 22±2° C.
Method: as §2
as §1, with “A or C (1” for “A-E (in respective experiments; 1”, “a respective amino acid (1-5” for “L-Lysine monohydrochloride (5”, “C.) for 4 hours.” for “C.).”, “60, 120” for “60”, “240” for “120”, “6).” for “2).”

[4] = Comparative active ester reactivity study with HOA nucleophile (benzhydroxamic acid); settings: Benzhydroxamic Acid 1 eq., 22±2° C.
Method: (§3) General Experimental Protocol for Comparative Active Ester Reactivity Study with HOPO or HOA Nucleophiles
(§4) To a 4 mL scintillation vial containing Compound A-E (in respective experiments; 1 eq.) was added a stir bar followed by 150 μL of HPLC grade acetonitrile. In another 4 mL scintillation vial containing a respective nucleophile (1 eq.) was added 280 μL HPLC grade water. The solutions were combined and allowed to stir at room temperature (22±2° C.) for 4 hours. Timed aliquots at time (T)=15, 30, 60, 120 and 240 minutes were taken and analyzed by HPLC-MS using elution method 1 (Table 1).

[5] = Comparative active ester reactivity study with HOA nucleophile (N-hydroxy-N-methylbenzamide); settings: N-Hydroxy-N-methylbenzamide 1 eq., 22±2° C.
Method: as §3, §4

[6] = Comparative active ester reactivity study with HOPO nucleophile; settings: 1,2-HOPO 1 eq., 22±2° C.
Method: as §3, §4

[7] = Competitive reactivity study between L-Lysine and HOPO nucleophile; settings: L-Lysine 5 eq. / 1,2-HOPO 1 eq.
Method: (§5) General Experimental Protocol for Competitive Reactivity Study with L-Lysine and HOPO or HOA Nucleophiles
as §1, with “A (1” for “A-E (in respective experiments; 1”, “acetonitrile followed by a respective HOPO or HOA nucleophile (1 eq).” for “acetonitrile.”, “C.) for 4 hours.” for “C.).”, “60, 120” for “60”, “240” for “120”, “7)” for “2).”

[8] = Competitive reactivity study between L-Lysine and HOA nucleophile; settings: L-Lysine 5 eq. / N-Hydroxy-N-methyl benzamide 1 eq
Method: as §5
as §1, with “A (1” for “A-E (in respective experiments; 1”, “acetonitrile followed by a respective HOPO or HOA nucleophile (1 eq).” for “acetonitrile.”, “C.) for 4 hours.” for “C.).”, “60, 120” for “60”, “240” for “120”, “7)” for “2).”

[9] = Active ester reactivity study with amino acids (Z-Arg-OH); settings: Z-Arg-OH 1 eq., 22±2° C.
Method: as §2
as §1, with “A or C (1” for “A-E (in respective experiments; 1”, “a respective amino acid (1-5” for “L-Lysine monohydrochloride (5”, “C.) for 4 hours.” for “C.).”, “60, 120” for “60”, “240” for “120”, “6).” for “2).”

SMILES: O=C(CCc1cccnc1)Oc1c(Cl)cccc1Cl [Compound A, 2,6-Dichlorophenyl-3-(pyridin-3-yl)propanoate]
- % Total Lysine Substitution ([1]; 15 min, 22±2° C.): 39.56%
- % Total Lysine Substitution ([1]; 30 min, 22±2° C.): 73.69%
- % Total Lysine Substitution ([1]; 60 min, 22±2° C.): 99.02%
- % Total Lysine Substitution ([1]; 120 min, 22±2° C.): 100%
- % Total Lysine Substitution ([1]; DMAP 10 mol % added, 15 min): 99.14%
- % Total Lysine Substitution ([1]; DMAP 10 mol % added, 30 min): 100%
- % Nucleophilic Substitution Product ([2]; 15 min): (0) %
- % Nucleophilic Substitution Product ([2]; 30 min): (0) %
- % Nucleophilic Substitution Product ([2]; 60 min): (0.08) %
- % Nucleophilic Substitution Product ([2]; 120 min): (0.23) %
- % Nucleophilic Substitution Product ([2]; 240 min): (0.44) %
- % Nucleophilic Substitution Product ([3]; 15 min): (0) %
- % Nucleophilic Substitution Product ([3]; 30 min): (0.14) %
- % Nucleophilic Substitution Product ([3]; 60 min): (0.16) %
- % Nucleophilic Substitution Product ([3]; 120 min): (0.30) %
- % Nucleophilic Substitution Product ([3]; 240 min): (17.48) %
- % Nucleophilic Substitution Product ([4]; 15 min): (2.95) %
- % Nucleophilic Substitution Product ([4]; 30 min): (4.03) %
- % Nucleophilic Substitution Product ([4]; 60 min): (7.64) %
- % Nucleophilic Substitution Product ([4]; 120 min): (13.35) %
- % Nucleophilic Substitution Product ([4]; 240 min): (21.93) %
- % Nucleophilic Substitution Product ([5]; 15 min): (0.43) %
- % Nucleophilic Substitution Product ([5]; 30 min): (0.66) %
- % Nucleophilic Substitution Product ([5]; 60 min): (1.53) %
- % Nucleophilic Substitution Product ([5]; 120 min): (3.77) %
- % Nucleophilic Substitution Product ([5]; 240 min): (7.62) %
- % Nucleophilic Substitution Product ([6]; 15 min): (0) %
- % Nucleophilic Substitution Product ([6]; 30 min): (0) %
- % Nucleophilic Substitution Product ([6]; 60 min): (0) %
- % Nucleophilic Substitution Product ([6]; 120 min): (0) %
- % Nucleophilic Substitution Product ([6]; 240 min): (0.26) %
- % HOPO or HOA Substitution ([7]; 15 min): 0%
- % Total Lysine Substitution ([7]; 15 min): 11.67%
- % HOPO or HOA Substitution ([7]; 30 min): 0%
- % Total Lysine Substitution ([7]; 30 min): 25.48%
- % HOPO or HOA Substitution ([7]; 60 min): 0%
- % Total Lysine Substitution ([7]; 60 min): 71.71%
- % HOPO or HOA Substitution ([7]; 120 min): 0%
- % Total Lysine Substitution ([7]; 120 min): 97.99%
- % HOPO or HOA Substitution ([7]; 240 min): 0%
- % Total Lysine Substitution ([7]; 240 min): 100%
- % HOPO or HOA Substitution ([8]; 15 min): 0.24%
- % Total Lysine Substitution ([8]; 15 min): 34%
- % HOPO or HOA Substitution ([8]; 30 min): 0.33%
- % Total Lysine Substitution ([8]; 30 min): 84.84%
- % HOPO or HOA Substitution ([8]; 60 min): 0.83%
- % Total Lysine Substitution ([8]; 60 min): 97.54%
- % HOPO or HOA Substitution ([8]; 120 min): 1.01%
- % Total Lysine Substitution ([8]; 120 min): 98.99%
- % Nucleophilic Substitution Product ([9]; 15 min): (1.04) %
- % Nucleophilic Substitution Product ([9]; 30 min): (1.8) %
- % Nucleophilic Substitution Product ([9]; 60 min): (2.98) %
- % Nucleophilic Substitution Product ([9]; 120 min): (4.18) %
- % Nucleophilic Substitution Product ([9]; 240 min): (5.81) %
